Results taken from PubChem BioAssay AID1347075 (National Center for Advancing Translational Sciences (NCATS), 2019).
Several values for one entry are separate records, joined by “and”; a condition that tells them apart may be missing. Identical values can stand only once. In all, about 400,000 compounds went through this assay and about 5,500 (1.4%) were called active. Inconclusive results, whose numbers are uncertain, are shown with a selection of clear calls. Calls come from the whole dose curve; as a rule, active = well fitted cell-killing curve with a large enough effect; inconclusive = small, poorly fitted or top-dose-only effect, or effect the other way; inactive = flat fitted curve, though single readings scatter. A potency beside an inconclusive call is a rough fit, not a confirmed value.

Experiment: qHTS assay for MDR1-selective chemotherapeutics: Primary screen using the parental adenocarcinoma cell KB-3-1; note: nearly all actives have a fitted effect of over 60% in size
Details: KB-3-1 viability, CellTiter-Glo ATP luminescence, 72 h; activity change, negative = cytotoxic: at 46.1 µM (top of the series)
Procedure, shortened: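 Cells are dispensed, compounds pinned in, plates held at 37 °C for 72 h, then CellTiter-Glo is added and luminescence read after 10 minutes. Cell line: parental KB-3-1 in phenol-red-free DMEM, 10% FBS.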
% is set by controls: 0 for no effect and ±100 for the full control effect; potency is the fitted concentration of half-maximal effect.

SMILES	Potency	activity change, negative = cytotoxic
C(=N\Nc1nncc2ccccc12)/c1ccccn1	inconclusive: 13 µM [cytotoxic, partial curve, poor fit]	
CCOC(=O)N1CCC(N2Cc3cccc(C(=O)Nc4ccc(F)cc4)c3C2=O)CC1	inconclusive: 18.4 µM [cytotoxic, single point]	
COc1ccc(-c2noc(CCC(=O)NCCCN3CCC(Cc4ccccc4)CC3)n2)cc1	inconclusive: 18.4 µM [cytotoxic, single point]	
CCOC(=O)C1=CC[C@]2(C)c3c(c4ccccc4n3C)C(=O)C1N2C		inactive: 2.19%
Cc1nnc(SCC(=O)c2ccc(C(C)C)cc2)s1		inactive: -17.6%
Cc1c(CC(=O)N2CCN(C(=O)C3COc4ccccc4O3)CC2)c(=O)oc2c(O)c(O)ccc12 (stereo not drawn)	inconclusive: 29.1 µM [cytotoxic, single point]	
N#Cc1ccccc1NC(=O)CSc1nnc(-c2ccccc2O)n1-c1ccccc1	inconclusive: 20.6 µM [cytotoxic, single point]	
CCN(C(=O)c1cn(C)c(=O)c2ccccc12)c1cccc(C)c1		inactive: -6.61%
COc1cc2ccccc2cc1C(=O)NCC(c1cccs1)N(C)C (stereo not drawn)	inconclusive: 18.4 µM [cytotoxic, single point]	
CCN(CC)Cc1c(O)c(Cl)cc2c3c(c(=O)oc12)CCCC3	inconclusive: 32.6 µM [cytotoxic, partial curve, poor fit]	
CCCCn1c(SCc2ncc(-c3ccccc3)o2)nc2cc(S(N)(=O)=O)ccc21	inconclusive: 29.1 µM [cytotoxic, single point]	
CC1CN(C(=O)c2cc3c(=O)n4ccccc4nc3s2)CC(C)O1 (stereo not drawn)		inactive: -22.3%
CC(=O)c1cccc(NC(=O)CCCSc2nc(-c3ccco3)cc(C(F)(F)F)n2)c1	inconclusive: 29.1 µM [cytotoxic, single point]	
c1cnc2c(c1)ccc1cccnc12	inconclusive: 5.8 µM [cytotoxic, full curve] and inconclusive: 16.4 µM [cytotoxic, single point]	
COc1ccc2[nH]cc(CCNC(=O)c3ccc([N+](=O)[O-])cc3)c2c1	inconclusive: 29.1 µM [rising, single point]	
CC[n+]1ccccc1/C=C/c1ccc(N(C)C)cc1	active: 1.3 µM	
C[C@@H]1CN([C@@H](C)CO)C(=O)c2c(c3ccccc3n2C)-c2ccccc2CO[C@H]1CN(C)C(=O)[C@H](C)c1ccccc1	inconclusive: 29.1 µM [cytotoxic, single point]	
CC(C)N(C(=O)[C@H]1CC(CC(=O)NCC23CC4CC(CC(C4)C2)C3)C(=O)N2CCc3c([nH]c4ccccc34)[C@]12C)C(C)C (stereo partly drawn)		inactive: 0%
